Measured values reported in patent EP2652508B1.
Results are given in words; binding and its absence hold for the method and conditions named. For some assays here: In cells and extracts the contact can be indirect. Some binding calls cover weakened binding; strength is not graded here. One block for each molecule: values may come before it.

The chains behind the UniProt entries cited, without tags or fusion partners. Where a name states a change or a piece, a line headed by the entry shows the natural chain unless it says otherwise. Residues count along the entry.
UniProt P61072: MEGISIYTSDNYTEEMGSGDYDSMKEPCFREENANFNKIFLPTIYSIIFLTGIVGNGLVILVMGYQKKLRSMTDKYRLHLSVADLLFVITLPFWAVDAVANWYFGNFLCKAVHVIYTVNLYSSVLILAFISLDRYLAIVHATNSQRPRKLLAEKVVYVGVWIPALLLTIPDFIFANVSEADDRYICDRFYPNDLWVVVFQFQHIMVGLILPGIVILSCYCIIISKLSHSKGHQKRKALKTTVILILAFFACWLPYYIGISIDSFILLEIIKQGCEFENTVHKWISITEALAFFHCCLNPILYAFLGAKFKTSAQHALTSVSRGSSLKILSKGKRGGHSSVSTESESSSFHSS
UniProt P32302: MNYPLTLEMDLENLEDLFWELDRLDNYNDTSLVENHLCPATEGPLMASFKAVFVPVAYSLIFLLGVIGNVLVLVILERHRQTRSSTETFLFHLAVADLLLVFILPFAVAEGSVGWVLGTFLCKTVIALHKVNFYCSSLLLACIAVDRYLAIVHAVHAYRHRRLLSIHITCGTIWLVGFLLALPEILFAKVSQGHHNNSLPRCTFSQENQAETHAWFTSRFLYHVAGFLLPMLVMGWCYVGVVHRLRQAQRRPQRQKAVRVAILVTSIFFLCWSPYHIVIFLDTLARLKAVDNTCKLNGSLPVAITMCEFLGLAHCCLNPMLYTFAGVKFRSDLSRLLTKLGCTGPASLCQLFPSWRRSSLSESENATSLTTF
UniProt Q14344: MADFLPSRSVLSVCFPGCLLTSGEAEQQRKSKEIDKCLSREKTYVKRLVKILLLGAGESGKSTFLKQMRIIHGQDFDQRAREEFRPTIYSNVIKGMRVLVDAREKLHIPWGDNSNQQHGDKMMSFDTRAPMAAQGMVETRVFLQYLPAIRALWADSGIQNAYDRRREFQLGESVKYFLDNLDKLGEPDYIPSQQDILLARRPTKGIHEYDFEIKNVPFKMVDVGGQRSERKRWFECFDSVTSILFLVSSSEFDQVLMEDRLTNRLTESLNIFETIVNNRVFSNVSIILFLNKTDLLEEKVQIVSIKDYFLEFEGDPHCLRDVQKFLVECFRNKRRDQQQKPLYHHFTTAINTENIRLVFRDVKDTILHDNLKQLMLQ
UniProt P04899, residues 2-355: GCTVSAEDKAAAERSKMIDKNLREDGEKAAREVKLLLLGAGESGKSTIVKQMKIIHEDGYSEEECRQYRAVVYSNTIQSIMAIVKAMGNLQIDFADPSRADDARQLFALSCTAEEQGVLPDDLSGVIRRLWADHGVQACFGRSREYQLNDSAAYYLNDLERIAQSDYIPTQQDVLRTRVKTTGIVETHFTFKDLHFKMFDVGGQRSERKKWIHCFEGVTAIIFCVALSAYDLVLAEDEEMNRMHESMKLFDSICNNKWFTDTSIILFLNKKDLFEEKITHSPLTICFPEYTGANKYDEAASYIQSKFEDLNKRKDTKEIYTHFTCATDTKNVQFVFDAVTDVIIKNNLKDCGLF

Experiments:
[1] = target: CXCR4 (Pan troglodytes (Chimpanzee)) (UniProt P61072); assay: co-immunoprecipitation from prostate cell lysates: IP of Gα13, immunoblot for CXCR4
[2] = target: CXCR5 (human) (UniProt P32302); assay: co-immunoprecipitation from prostate cell lysates: IP of Gα13, immunoblot for CXCR5
[3] = target: CXCR4 (Pan troglodytes (Chimpanzee)) (UniProt P61072); assay: co-immunoprecipitation, legend of FIGS. 12A-C
[4] = target: CXCR5 (human) (UniProt P32302); assay: co-immunoprecipitation, legend of FIGS. 12A-C
[5] = target: CXCR5 (human) (UniProt P32302); assay: co-immunoprecipitation, legend of FIGS. 11A-B
[6] = target: CXCR5 (human) (UniProt P32302); assay: co-immunoprecipitation from prostate cell lysates: IP of Gαi2, immunoblot for CXCR5
[7] = target: CXCR5 (human) (UniProt P32302); assay: imaging flow cytometry, legend of FIGS. 22A-B
[8] = target: CXCR5 (human) (UniProt P32302); assay: imaging flow cytometry (Amnis Imagestream) of LNCaP and PC3 cells stained with anti-CXCR5 and anti-CXCL13 antibodies; signal correlation between CXCR5 and CXCL13

- binding [1]: binds
- binding [2]: binds
- binding [3]: binds
- binding [4]: binds
Molecule: Gα13 (from UniProt Q14344 1-377)

- binding [5]: binds
- binding [6]: binds
Molecule: Gαi2 (from UniProt P04899 2-355)

- binding [7]: binds
- binding [8]: binds
B1: CXCL13 (ligand)
chain: VLEVYYTSLRCRCVQESSVFIPRRFIDRIQILPRGNGCPRKEIIVWKKNKSIVCVDPQAEWIQRMMEVLRKRSSSTLPVPVFKRKIP
